PubChem BioAssay AID1259297 – Sanger Institute, 2017
This is an unselected part of 794 reagents. Of all reagents, 13 (1.6%) got an active call. 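Calls reflect knock-down without drug only; drug synergy is judged separately, with scores above 0.15 counted as synergy.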 Further read-outs or replicates are left out here. No sequences are given here. Not stated in the record: the amount of reagent, the time to read-out.

Assay: 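siRNA screen across the kinome seeking drug partners in cells of colorectal cancer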 (primary screen)
System: human RCM1 colorectal cancer cell line
Reagents: siRNA pool against human genes
Conditions: separate arms: DMSO vehicle, or one anchor drug at a mild dose: BYL719 1 µM, cetuximab 5 µg/ml, trametinib 10 nM
Measurement: 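Viability per well relative to a non-targeting pool, mean of replicates; robust z-score for knock-down alone; synergy score with BYL719, cetuximab or trametinib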
Direction: viability z-score, knock-down alone: higher = more viable cells than non-targeting controls
Active means: 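Called essential if knock-down without drug gives a viability robust z-score under -3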
Calls: active = essential when knocked down alone; inactive = no clear loss of viability alone

| target | viability z-score, knock-down alone | Call |
| --- | --- | --- |
| EGFR | 0.152 | inactive |
| CDC42BPG | 0.743 | inactive |
| TK2 | 0.9 | inactive |
| EPHA8 | -0.139 | inactive |
| GRK7 | -0.745 | inactive |
| ATRX | 0.668 | inactive |
| PANK4 | -2.28 | inactive |
| CSF1R | -1.19 | inactive |
| CDK5 | 0.144 | inactive |
| STK26 | 0.546 | inactive |
| FGFRL1 | 0.119 | inactive |
| ERBB2 | -0.0563 | inactive |
| JAK3 | 0.71 | inactive |
| HIPK2 | 0.714 | inactive |
| PTPRU | 0.71 | inactive |
| PIK3C3 | 0.549 | inactive |
| RPS6KB2 | 0.178 | inactive |
| ZC3H11A | 0.9 | inactive |
| PRKAG1 | -0.129 | inactive |
| MSR1 | 0.9 | inactive |
| FGFR4 | 0.723 | inactive |
| PRP4K | -0.944 | inactive |

Continued, starting with the last 7 of the part before.
| target | viability z-score, knock-down alone | Call |
| --- | --- | --- |
| PIK3C3 | 0.549 | inactive |
| RPS6KB2 | 0.178 | inactive |
| ZC3H11A | 0.9 | inactive |
| PRKAG1 | -0.129 | inactive |
| MSR1 | 0.9 | inactive |
| FGFR4 | 0.723 | inactive |
| PRP4K | -0.944 | inactive |
| ROCK1 | 0.561 | inactive |
| SRGAP3 | 0.616 | inactive |
| TSSK6 | -0.442 | inactive |
| RYK | 0.9 | inactive |
| BCOR | -1.07 | inactive |
| NME5 | 0.9 | inactive |
| MAPK7 | 0.9 | inactive |
| NUCKS1 | 0.855 | inactive |
| MAP3K5 | 0.134 | inactive |
| CHD9 | -0.172 | inactive |
| WT1 | 0.622 | inactive |
| CHKB | -0.415 | inactive |
| FYN | -0.481 | inactive |
| AKAP9 | -0.312 | inactive |
| NEK4 | 0.9 | inactive |
| CDK19 | -1.18 | inactive |
| TNIK | -0.295 | inactive |
| PRKCE | -0.812 | inactive |
| MARK1 | -0.241 | inactive |
| TTBK2 | 0.0435 | inactive |
| RIOK1 | 0.0688 | inactive |
| CAD | 0.9 | inactive |
| CMPK1 | 0.9 | inactive |
| TLK2 | 0.9 | inactive |
| AKT3 | -0.876 | inactive |
| WNK2 | -0.685 | inactive |
| CKS1B | 0.9 | inactive |
| EIF2AK2 | -0.63 | inactive |
